Test results taken from article PMC3516536.

Protein sequences, listed by entry. Tags and fused reporters are not part of them.
UniProt A0A1D8PJ17: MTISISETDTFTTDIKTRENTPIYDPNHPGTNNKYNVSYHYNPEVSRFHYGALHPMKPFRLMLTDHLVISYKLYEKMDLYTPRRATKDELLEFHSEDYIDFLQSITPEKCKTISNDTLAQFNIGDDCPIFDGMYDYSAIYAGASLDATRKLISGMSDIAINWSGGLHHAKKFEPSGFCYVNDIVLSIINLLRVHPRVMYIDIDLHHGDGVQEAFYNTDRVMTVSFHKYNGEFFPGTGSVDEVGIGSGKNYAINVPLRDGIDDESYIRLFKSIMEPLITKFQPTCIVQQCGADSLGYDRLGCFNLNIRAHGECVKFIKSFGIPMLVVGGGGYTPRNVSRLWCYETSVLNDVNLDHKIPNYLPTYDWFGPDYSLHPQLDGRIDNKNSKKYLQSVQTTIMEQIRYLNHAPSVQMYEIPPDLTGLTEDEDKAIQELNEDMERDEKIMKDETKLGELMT

Target: Set3-3HA (C. albicans)
Assay: co-IP; Set3-3HA immunoprecipitated from whole cell extracts with anti-HA (3F10) agarose beads; stringent lysis buffer (PBS with 300 mM NaCl, 1% Triton X-100, 2 mM DTT); immunoblot for Hos2-9myc (anti-myc)

binding: binds
Substance: Hos2-9myc (from UniProt A0A1D8PJ17 1-454)

These are yes or no findings as the source states them, for the method shown. In cells and extracts the contact can be indirect. Binding can be weak; no strength is given.
